According to patent publication US20150307599A1:
No constants are given. Whether binding was seen depends on the method and setting. Some results given as binding are weak or reduced against the parent protein; the word gives no strength.

Columns and labels:
[1] = molecular target: Peptide 1p5 (NPY last 17 residues Alanine Scan); assay: indirect ELISA, peptide coated at 20 ug/mL, MAb at 1 ug/mL
[2] = molecular target: T1, Peptide 2p3 (Poly Ala with shrinking NPY C term); assay: as above
T1 sequence (peptide, C-terminal amide (-NH2)): AAAALRHYINLITRQRY

[3] = molecular target: T2, Peptide 2p6 (Poly Ala with shrinking NPY C term); assay: as above
T2 sequence (peptide, C-terminal amide (-NH2)): AAAAAAAYINLITRQRY

[4] = molecular target: T3, Peptide 2p4 (Poly Ala with shrinking NPY C term); assay: as above
T3 sequence (peptide, C-terminal amide (-NH2)): AAAAARHYINLITRQRY

[5] = molecular target: T4, Peptide 2p11 (Poly Ala with shrinking NPY C term); assay: as above
T4 sequence (peptide, C-terminal amide (-NH2)): AAAAAAAAAAAATRQRY

[6] = molecular target: Peptide 1p8 (NPY last 17 residues Alanine Scan); assay: as above
[7] = molecular target: NPY (mouse NPY, Phoenix) (mouse); assay: as above
[8] = molecular target: T5, Peptide 2p9 (Poly Ala with shrinking NPY C term); assay: as above
T5 sequence (peptide, C-terminal amide (-NH2)): AAAAAAAAAALITRQRY

[9] = molecular target: Peptide 1p11 (NPY last 17 residues Alanine Scan); assay: as above
[10] = molecular target: Peptide 1p9 (NPY last 17 residues Alanine Scan); assay: as above
[11] = molecular target: T6, Peptide 2p2 (Poly Ala with shrinking NPY C term); assay: as above
T6 sequence (peptide, C-terminal amide (-NH2)): AASALRHYINLITRQRY

[12] = molecular target: T7, Peptide 2p18 (mPP with last 4 NPY residues); assay: as above
T7 sequence (peptide, C-terminal amide (-NH2)): YETQLRRYINTLTRQRY

[13] = molecular target: Peptide 1p12 (NPY last 17 residues Alanine Scan); assay: as above
[14] = molecular target: Peptide 1p2 (NPY last 17 residues Alanine Scan); assay: as above
[15] = molecular target: T8, Peptide 2p14 (Poly Ala with shrinking NPY C term); assay: as above
T8 sequence (peptide, C-terminal amide (-NH2)): AAAAAAAAAAAAAAQRY

[16] = molecular target: T9, Peptide 2p12 (Poly Ala with shrinking NPY C term); assay: as above
T9 sequence (peptide, C-terminal amide (-NH2)): AAAAAAAAAAAATRQRY

[17] = molecular target: T10, Peptide 2p10 (Poly Ala with shrinking NPY C term); assay: as above
T10 sequence (peptide, C-terminal amide (-NH2)): AAAAAAAAAAAITRQRY

[18] = molecular target: Peptide 1p10 (NPY last 17 residues Alanine Scan); assay: as above
[19] = molecular target: Peptide 1p6 (NPY last 17 residues Alanine Scan); assay: as above
[20] = molecular target: Peptide 1p13 (NPY last 17 residues Alanine Scan); assay: as above
[21] = molecular target: T11, Peptide 2p7 (Poly Ala with shrinking NPY C term); assay: as above
T11 sequence (peptide, C-terminal amide (-NH2)): AAAAAAAAINLITRQRY

[22] = molecular target: T12, Peptide 2p5 (Poly Ala with shrinking NPY C term); assay: as above
T12 sequence (peptide, C-terminal amide (-NH2)): AAAAAAHYINLITRQRY

[23] = molecular target: T13, Peptide 2p20 (Poly Glycine with last 3 NPY residues); assay: as above
T13 sequence (peptide, C-terminal amide (-NH2)): GGGGGGGGGGGGGGQRY

[24] = molecular target: Peptide 1p4 (NPY last 17 residues Alanine Scan); assay: as above
[25] = molecular target: T14, Peptide 2p13 (Poly Ala with shrinking NPY C term); assay: as above
T14 sequence (peptide, C-terminal amide (-NH2)): AAAAAAAAAAAAARQRY

[26] = molecular target: Peptide 1p14 (NPY last 17 residues Alanine Scan); assay: as above
[27] = molecular target: T15, Peptide 2p1 (Poly Ala with shrinking NPY C term); assay: as above
T15 sequence (peptide, C-terminal amide (-NH2)): AYSALRHYINLITRQRY

[28] = molecular target: T16, Peptide 2p8 (Poly Ala with shrinking NPY C term); assay: as above
T16 sequence (peptide, C-terminal amide (-NH2)): AAAAAAAAANLITRQRY

[29] = molecular target: Peptide 1p1 (NPY last 17 residues Alanine Scan) (mouse); assay: as above
[30] = molecular target: Peptide 1p3 (NPY last 17 residues Alanine Scan); assay: as above
[31] = molecular target: Peptide 1p7 (NPY last 17 residues Alanine Scan); assay: as above
[32] = molecular target: Peptide 1p15 (NPY last 17 residues Alanine Scan); assay: as above
[33] = molecular target: NPY (mouse NPY, Phoenix) (mouse); assay: Biacore 2000 (SPR), biotinylated MAb 5E12-B7 on a streptavidin chip, peptide injected; concentration of the peptide not printed on the sheet
[34] = molecular target: human PYY (Phoenix) (human); assay: as above
[35] = molecular target: T15, Peptide 2p1 (Poly Ala with shrinking NPY C term); assay: as above
[36] = molecular target: NPY (mouse NPY, Phoenix) (mouse); assay: BLI (Octet RED96), biotinylated MAb on SA sensors, peptide in solution
[37] = molecular target: human PYY (Phoenix) (human); assay: as above
[38] = molecular target: T17, Peptide 3p14 (NPY C terminus with similar a.a. substitutions); assay: SPR (Biacore), FIGS. 11A and 11B
T17 sequence (peptide, C-terminal amide (-NH2)): AAAAAAAAAAAAAAKRY

[39] = molecular target: T18, Peptide 3p13 (NPY C terminus with similar a.a. substitutions); assay: SPR (Biacore), FIGS. 11A and 11B
T18 sequence (peptide, C-terminal amide (-NH2)): AAAAAAAAAAAAAARRY

[40] = molecular target: NPY (mouse NPY, Phoenix) (mouse); assay: SPR (Biacore 2000), biotinylated MAb on SA chip, peptide in solution
[41] = molecular target: human PYY (Phoenix) (human); assay: as above
[42] = molecular target: NPY (mouse NPY, Phoenix) (mouse); assay: Biacore 2000 (SPR), biotinylated MAb 5E12-B7 on a streptavidin chip, peptide injected; concentration of the peptide not printed on the sheet; the sheet says 'Human NPY', the NPY peptide of the Biacore work is the Phoenix peptide of Table 3 (human and mouse NPY are identical)
[43] = molecular target: T7, Peptide 2p18 (mPP with last 4 NPY residues); assay: SPR (Biacore), FIG. 10
[44] = molecular target: NPY (mouse NPY, Phoenix) (mouse); assay: indirect ELISA, peptide coated on the plate (20 µg/mL), MAb 5E12-B7 at 1 µg/mL, O.D. 450 nm
[45] = molecular target: T19, 1p32-…; assay: as above
T19 sequence (peptide, C-terminal amide (-NH2)): YINLITRQRY

[46] = molecular target: human PYY (Phoenix) (human); assay: as above

- binding [1]: binds
- binding [2]: binds
- binding [3]: binds
- binding [4]: binds
- binding [5]: binds
- binding [6]: binds
- binding [7]: binds
- binding [8]: binds
- binding [9]: binds
- binding [10]: binds
- binding [11]: binds
- binding [12]: binds
- binding [13]: binds
- binding [14]: binds
- binding [15]: binds
- binding [16]: binds
- binding [17]: binds
- binding [18]: binds
- binding [19]: binds
- binding [20]: binds
- binding [21]: binds
- binding [22]: binds
- binding [23]: binds
- binding [24]: binds
- binding [25]: binds
- binding [26]: binds
- binding [27]: binds
- binding [28]: binds
- binding [29]: binds
- binding [30]: binds
- binding [31]: binds
- binding [32]: binds
- binding [33]: binds
- binding [34]: binds
- binding [35]: binds
- binding [36]: binds
- binding [37]: binds
- binding [38]: binds
- binding [39]: binds
- binding [40]: binds
- binding [41]: binds
- binding [42]: binds
- binding [43]: binds
- binding [44]: binds
- binding [45]: binds
- binding [46]: binds
B1: MAb 5E12-B7 (antibody, V domains shown)
VH: QVQLQHPGTEVVKPGASVKLSCKASGYTFTNYWMHWVKQRPGQGLEWIGNIDPSNGGTNYNEKFKSKATLTVDKSSSTAYMQLSSLTSEDSAVYYCASFAYWGQGTLVTVSA
VL: DIQMTQSPASLSASVGETVTITCRASGNIHNYLAWYQQKQGKSPQLLVYNAKTLADGVPSRFSGSGSGTQYSLKISSLRPEDFGSYYCQHFWSPPFTFGSGTKLEIK
